# From the supplement of paper PMC6411743
# By UniProt entry, the sequences of proteins in these tests, tags left out. Where a name states a change or a piece, a line headed by the entry shows the natural chain unless it says otherwise.
# UniProt Q92609: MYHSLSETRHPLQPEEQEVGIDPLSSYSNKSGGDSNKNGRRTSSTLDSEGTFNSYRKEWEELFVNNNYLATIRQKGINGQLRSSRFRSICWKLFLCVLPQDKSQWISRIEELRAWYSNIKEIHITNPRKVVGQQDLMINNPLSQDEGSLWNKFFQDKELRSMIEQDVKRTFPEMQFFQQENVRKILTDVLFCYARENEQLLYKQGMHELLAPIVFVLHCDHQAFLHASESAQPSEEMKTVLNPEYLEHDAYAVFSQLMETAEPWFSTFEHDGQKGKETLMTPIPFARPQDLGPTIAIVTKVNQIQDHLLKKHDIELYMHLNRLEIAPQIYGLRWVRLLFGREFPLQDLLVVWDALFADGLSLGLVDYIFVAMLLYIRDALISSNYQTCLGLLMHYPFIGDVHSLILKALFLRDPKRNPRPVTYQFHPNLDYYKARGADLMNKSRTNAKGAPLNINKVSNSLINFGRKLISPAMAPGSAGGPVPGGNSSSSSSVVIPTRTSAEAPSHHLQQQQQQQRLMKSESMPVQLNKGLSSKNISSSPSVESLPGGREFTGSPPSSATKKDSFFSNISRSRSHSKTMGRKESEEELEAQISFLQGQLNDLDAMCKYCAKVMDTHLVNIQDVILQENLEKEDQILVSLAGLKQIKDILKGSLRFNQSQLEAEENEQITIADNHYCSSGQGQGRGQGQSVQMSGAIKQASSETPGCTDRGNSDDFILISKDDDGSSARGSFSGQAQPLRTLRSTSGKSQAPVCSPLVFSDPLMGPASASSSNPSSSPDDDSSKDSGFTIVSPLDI
# UniProt Q8WYL5: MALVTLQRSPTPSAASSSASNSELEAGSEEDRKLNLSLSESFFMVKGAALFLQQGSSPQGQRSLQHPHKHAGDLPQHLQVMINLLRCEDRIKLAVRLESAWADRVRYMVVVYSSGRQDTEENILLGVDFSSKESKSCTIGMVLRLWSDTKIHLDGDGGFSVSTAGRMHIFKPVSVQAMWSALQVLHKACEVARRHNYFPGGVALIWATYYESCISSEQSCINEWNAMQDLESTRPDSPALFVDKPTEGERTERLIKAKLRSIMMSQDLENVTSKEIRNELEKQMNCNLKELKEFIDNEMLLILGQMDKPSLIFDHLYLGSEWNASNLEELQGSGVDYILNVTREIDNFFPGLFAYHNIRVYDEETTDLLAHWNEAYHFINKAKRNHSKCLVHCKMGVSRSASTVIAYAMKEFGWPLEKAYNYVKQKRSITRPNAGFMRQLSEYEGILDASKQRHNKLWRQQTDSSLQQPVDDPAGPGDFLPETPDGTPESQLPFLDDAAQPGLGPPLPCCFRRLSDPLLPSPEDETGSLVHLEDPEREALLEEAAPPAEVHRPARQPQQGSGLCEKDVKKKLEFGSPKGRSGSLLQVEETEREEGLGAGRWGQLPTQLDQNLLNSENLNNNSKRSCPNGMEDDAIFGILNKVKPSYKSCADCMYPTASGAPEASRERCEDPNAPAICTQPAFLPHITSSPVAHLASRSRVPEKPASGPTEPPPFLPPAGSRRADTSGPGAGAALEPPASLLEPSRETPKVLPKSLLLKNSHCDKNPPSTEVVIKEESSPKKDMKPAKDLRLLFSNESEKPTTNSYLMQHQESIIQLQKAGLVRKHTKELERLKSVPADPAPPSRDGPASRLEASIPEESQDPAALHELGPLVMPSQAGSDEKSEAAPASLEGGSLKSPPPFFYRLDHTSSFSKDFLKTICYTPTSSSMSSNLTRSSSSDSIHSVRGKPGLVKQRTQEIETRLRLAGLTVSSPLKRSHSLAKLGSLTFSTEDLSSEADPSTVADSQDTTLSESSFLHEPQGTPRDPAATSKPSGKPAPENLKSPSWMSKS
# UniProt Q969R8: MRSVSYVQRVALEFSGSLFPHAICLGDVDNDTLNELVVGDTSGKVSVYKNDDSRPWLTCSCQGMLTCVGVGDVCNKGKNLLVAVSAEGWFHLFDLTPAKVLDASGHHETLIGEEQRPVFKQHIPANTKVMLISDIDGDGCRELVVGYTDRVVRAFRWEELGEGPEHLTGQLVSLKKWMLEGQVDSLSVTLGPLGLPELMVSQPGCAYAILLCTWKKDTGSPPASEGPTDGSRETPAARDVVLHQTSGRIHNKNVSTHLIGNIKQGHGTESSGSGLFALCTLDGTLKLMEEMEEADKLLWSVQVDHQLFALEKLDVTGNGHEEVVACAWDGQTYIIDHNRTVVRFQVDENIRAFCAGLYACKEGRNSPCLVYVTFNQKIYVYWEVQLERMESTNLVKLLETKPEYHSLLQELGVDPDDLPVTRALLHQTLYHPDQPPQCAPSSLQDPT
# UniProt Q92844: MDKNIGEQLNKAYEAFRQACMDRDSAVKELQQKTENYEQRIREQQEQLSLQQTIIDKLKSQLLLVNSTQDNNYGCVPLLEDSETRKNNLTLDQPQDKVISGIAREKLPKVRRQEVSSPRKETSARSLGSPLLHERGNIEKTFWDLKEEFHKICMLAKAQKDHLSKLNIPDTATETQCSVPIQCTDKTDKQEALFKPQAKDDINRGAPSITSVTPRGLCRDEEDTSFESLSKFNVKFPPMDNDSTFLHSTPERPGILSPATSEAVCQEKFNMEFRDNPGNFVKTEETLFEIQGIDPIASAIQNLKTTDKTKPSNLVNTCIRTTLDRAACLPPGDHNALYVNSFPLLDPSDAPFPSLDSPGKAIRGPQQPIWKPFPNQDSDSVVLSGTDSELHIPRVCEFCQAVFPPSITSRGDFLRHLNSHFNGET
# UniProt Q92878: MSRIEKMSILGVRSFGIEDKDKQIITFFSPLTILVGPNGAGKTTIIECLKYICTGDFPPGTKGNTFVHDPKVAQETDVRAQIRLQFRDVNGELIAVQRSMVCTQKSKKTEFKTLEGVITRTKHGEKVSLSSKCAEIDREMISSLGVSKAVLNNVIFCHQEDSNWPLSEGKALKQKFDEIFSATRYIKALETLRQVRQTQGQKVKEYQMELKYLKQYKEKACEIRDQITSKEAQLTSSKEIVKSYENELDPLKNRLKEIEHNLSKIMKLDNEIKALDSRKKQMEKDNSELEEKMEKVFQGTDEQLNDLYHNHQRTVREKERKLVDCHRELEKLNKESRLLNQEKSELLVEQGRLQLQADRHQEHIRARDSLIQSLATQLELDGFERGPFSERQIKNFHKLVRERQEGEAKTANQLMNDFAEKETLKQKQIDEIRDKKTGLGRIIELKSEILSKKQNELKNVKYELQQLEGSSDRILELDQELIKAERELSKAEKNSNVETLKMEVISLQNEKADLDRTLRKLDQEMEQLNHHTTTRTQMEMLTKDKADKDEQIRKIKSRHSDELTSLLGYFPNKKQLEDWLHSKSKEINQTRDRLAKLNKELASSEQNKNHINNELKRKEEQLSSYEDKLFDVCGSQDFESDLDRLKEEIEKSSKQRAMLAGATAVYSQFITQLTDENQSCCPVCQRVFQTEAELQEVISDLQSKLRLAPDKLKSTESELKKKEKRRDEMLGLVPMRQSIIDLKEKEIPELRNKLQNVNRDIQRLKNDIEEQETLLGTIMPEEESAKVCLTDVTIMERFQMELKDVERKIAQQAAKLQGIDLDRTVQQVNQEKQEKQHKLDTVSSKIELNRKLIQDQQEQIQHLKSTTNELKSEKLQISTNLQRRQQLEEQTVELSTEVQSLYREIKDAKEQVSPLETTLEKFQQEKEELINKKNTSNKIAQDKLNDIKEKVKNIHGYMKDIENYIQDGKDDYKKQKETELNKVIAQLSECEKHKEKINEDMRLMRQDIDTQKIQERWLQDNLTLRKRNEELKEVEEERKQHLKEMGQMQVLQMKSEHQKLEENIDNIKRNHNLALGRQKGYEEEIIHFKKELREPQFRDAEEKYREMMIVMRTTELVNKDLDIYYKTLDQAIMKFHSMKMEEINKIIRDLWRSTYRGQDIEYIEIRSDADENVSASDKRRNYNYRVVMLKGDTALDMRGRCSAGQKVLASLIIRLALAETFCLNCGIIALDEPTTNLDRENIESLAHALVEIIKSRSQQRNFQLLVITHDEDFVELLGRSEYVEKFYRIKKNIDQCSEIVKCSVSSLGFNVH
# UniProt Q92558: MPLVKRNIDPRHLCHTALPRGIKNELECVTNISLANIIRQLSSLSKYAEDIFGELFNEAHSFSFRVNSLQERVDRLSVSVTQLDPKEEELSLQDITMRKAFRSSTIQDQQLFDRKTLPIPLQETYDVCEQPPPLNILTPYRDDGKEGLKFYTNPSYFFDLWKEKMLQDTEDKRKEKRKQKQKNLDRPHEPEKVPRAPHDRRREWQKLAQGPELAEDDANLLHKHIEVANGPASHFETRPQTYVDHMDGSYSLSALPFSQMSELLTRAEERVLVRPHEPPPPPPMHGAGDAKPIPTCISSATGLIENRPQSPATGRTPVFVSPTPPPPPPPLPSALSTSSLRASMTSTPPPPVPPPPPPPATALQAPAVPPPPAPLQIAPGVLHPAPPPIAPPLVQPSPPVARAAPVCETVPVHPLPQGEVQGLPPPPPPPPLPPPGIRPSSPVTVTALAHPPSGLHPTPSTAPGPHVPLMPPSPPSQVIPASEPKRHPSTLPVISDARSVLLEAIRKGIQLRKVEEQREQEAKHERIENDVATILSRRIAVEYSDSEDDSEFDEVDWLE
# UniProt Q8TCD1: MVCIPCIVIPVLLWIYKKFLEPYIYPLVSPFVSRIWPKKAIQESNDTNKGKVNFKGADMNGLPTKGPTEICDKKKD
# UniProt Q96A57: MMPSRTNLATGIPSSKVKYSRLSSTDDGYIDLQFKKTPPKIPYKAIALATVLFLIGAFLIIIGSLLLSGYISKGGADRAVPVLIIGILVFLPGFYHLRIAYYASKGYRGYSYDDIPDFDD
# UniProt Q8TD16, whole entry: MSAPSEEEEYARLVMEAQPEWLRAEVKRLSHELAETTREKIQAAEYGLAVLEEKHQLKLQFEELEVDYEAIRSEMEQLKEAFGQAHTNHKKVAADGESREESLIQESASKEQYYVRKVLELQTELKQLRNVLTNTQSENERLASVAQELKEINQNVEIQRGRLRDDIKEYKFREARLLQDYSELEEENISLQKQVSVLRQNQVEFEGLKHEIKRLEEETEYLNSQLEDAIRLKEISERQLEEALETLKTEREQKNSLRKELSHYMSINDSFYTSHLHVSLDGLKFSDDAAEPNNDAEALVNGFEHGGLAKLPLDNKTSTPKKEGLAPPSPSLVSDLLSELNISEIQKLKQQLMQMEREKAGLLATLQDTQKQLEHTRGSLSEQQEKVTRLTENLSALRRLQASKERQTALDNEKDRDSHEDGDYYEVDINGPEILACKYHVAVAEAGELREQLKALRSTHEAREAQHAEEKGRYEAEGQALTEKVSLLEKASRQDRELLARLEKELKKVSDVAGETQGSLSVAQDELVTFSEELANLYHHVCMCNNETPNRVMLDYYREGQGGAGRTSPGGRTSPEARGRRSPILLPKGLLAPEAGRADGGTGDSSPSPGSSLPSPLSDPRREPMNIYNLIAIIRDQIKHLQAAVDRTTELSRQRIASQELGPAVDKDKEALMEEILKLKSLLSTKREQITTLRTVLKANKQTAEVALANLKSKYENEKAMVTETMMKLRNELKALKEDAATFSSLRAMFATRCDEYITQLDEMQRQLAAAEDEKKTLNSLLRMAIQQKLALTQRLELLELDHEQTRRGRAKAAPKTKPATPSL
# UniProt Q92572: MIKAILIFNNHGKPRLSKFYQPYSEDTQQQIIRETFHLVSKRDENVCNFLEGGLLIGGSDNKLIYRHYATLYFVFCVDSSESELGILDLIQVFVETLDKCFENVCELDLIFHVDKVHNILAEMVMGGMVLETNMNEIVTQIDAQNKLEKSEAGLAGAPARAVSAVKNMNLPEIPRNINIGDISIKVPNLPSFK
# UniProt Q92871: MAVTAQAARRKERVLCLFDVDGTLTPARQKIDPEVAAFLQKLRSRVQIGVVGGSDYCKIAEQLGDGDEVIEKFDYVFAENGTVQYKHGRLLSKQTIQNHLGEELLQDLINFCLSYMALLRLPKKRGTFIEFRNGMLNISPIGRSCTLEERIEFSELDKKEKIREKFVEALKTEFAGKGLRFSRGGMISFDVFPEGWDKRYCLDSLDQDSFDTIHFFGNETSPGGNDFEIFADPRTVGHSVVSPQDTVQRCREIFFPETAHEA
# UniProt Q8WVQ1: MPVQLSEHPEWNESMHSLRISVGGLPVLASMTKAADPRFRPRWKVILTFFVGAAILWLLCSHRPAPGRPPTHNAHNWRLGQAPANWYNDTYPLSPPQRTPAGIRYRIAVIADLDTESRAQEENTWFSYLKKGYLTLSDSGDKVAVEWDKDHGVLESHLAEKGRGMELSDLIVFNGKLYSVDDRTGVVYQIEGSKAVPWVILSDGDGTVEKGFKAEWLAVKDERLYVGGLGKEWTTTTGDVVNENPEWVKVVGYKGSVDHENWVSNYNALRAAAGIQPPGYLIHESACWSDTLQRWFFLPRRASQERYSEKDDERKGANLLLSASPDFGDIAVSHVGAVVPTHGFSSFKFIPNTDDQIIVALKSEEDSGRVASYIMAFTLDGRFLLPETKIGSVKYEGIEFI
# ± gives the standard deviation of the averaged measurements. This is a selection; strong and weak results do not stand in their true shares. Most values lie at the level of the controls, where differences are scatter.
# Compound: Nc1ncnc2c1ncn2[C@@H]1O[C@H](COP(=O)(O)OP(=O)(O)OP(=O)(O)O)[C@@H](O)[C@H]1O [adenosine triphosphate]
# Assay: NP40-soluble protein abundance relative to vehicle (solubility fold change) (ratio); higher = more soluble protein in presence of ATP
# Outline: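 Jurkat crude lysate prepared with a Dounce homogeniser was treated at eight concentrations spanning 0.1 to 10 mM, 10 min at room temperature then 3 min at 37 °C. Solubilisation with 0.8% NP40 and benzonase and ultracentrifugation preceded TMT labelling of the supernatant for LC-MS/MS. Fold change against the detergent-processed vehicle was determined per replicate from vsn-normalised intensities, across three independent experiments.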
Target,NP40-soluble protein abundance (concentration: 0.1mM),NP40-soluble protein abundance (concentration: 0.5mM)
UniProt Q969Y2 and related entries,1.01 ± 0.065,1 ± 0.018
UniProt Q92859 and related entries,0.983 ± 0.083,0.962 ± 0.032
UniProt Q8WVE0,1.01 ± 0.037,1.06 ± 0.088
DNAJB14 (UniProt Q8TBM8),0.954 ± 0.04,0.93 ± 0.05
UniProt Q93008 and related entries,1.02 ± 0.038,1.024 ± 0.0064
HDAC2 (UniProt Q92769),0.972 ± 0.025,1.01 ± 0.066
PIGK (UniProt Q92643),1.06 ± 0.18,1.08 ± 0.051
UniProt Q92609 and related entries,1.03 ± 0.026,1.03 ± 0.033
UniProt Q8TE04 and related entries,1.09 ± 0.053,1.12 ± 0.058
UniProt Q969H6 and related entries,1 ± 0.062,0.953 ± 0.032
UniProt Q8WUY1,0.973 ± 0.021,0.984 ± 0.028
LPP (UniProt Q93052),1.01 ± 0.059,0.981 ± 0.081
UniProt Q969G3 and related entries,0.919 ± 0.11,0.941 ± 0.11
UniProt Q92615,1.01 ± 0.068,1.06 ± 0.052
STT3B (UniProt Q8TCJ2),1.01 ± 0.014,1.01 ± 0.04
UniProt Q8WYL5,1.11 ± 0.18,0.964 ± 0.14
UniProt Q8TBF2-6|A0A0A0MT35|Q8TBF2-8,1 ± 0.033,1.02 ± 0.1
UniProt Q93100 and related entries,1.01 ± 0.035,0.981 ± 0.041
UniProt Q8TE02 and related entries,1.02 ± 0.074,0.951 ± 0.14
ITFG2 (UniProt Q969R8),1.02 ± 0.043,0.952 ± 0.055
UniProt Q969E4,1.04 ± 0.044,0.952 ± 0.14
UniProt Q8TEA7 and related entries,1 ± 0.086,0.986 ± 0.084
GATAD2B (UniProt Q8WXI9),0.964 ± 0.058,0.968 ± 0.056
UniProt Q8TDN6,1 ± 0.06,0.988 ± 0.022

Target,NP40-soluble protein abundance (concentration: 0.1mM),NP40-soluble protein abundance (concentration: 0.5mM)
OSTF1 (UniProt Q92882),1 ± 0.011,0.974 ± 0.026
UniProt Q92783 and related entries,0.972 ± 0.019,0.975 ± 0.0099
UBLCP1 (UniProt Q8WVY7),1.08 ± 0.079,0.989 ± 0.054
C15orf40 (UniProt Q8WUR7),0.931 ± 0.033,0.91 ± 0.13
AIDA (UniProt Q96BJ3),1.01 ± 0.048,1.02 ± 0.049
NOC3L (UniProt Q8WTT2),1.02 ± 0.056,1.07 ± 0.073
UniProt Q93050 and related entries,1.051 ± 0.0059,1.08 ± 0.08
UniProt Q92844 and related entries,0.964 ± 0.043,0.995 ± 0.038
UniProt Q8TCT9 and related entries,1.01 ± 0.028,0.963 ± 0.039
UniProt Q8WXA9-2,1.13 ± 0.056,1.35 ± 0.095
UniProt Q8TDD1 and related entries,1.04 ± 0.025,1.09 ± 0.037
SYMPK (UniProt Q92797),0.986 ± 0.022,1.01 ± 0.081
PPP1R13L (UniProt Q8WUF5),1.02 ± 0.077,1.04 ± 0.042
UniProt Q92878 and related entries,1.058 ± 0.01,1.11 ± 0.056
WASF1 (UniProt Q92558),0.9718 ± 0.0027,0.985 ± 0.062
DPF3 (UniProt Q92784),1.05 ± 0.069,1.03 ± 0.058
BAD (UniProt Q92934),0.908 ± 0.1,0.88 ± 0.17
MYST3 (UniProt Q92794),1.04 ± 0.026,1.03 ± 0.078
RDH11 (UniProt Q8TC12),0.994 ± 0.039,1.01 ± 0.039
UniProt Q8TCE6 and related entries,1.03 ± 0.091,1 ± 0.059
SPPL2B (UniProt Q8TCT7),0.961 ± 0.077,0.886 ± 0.1
UniProt Q92552 and related entries,0.949 ± 0.06,0.988 ± 0.092
UniProt Q92574 and related entries,1.01 ± 0.039,0.945 ± 0.049
NTAN1 (UniProt Q96AB6),1.09 ± 0.014,1.09 ± 0.033

# Exported tab-delimited: entries from further up
Target	NP40-soluble protein abundance (concentration: 0.1mM)	NP40-soluble protein abundance (concentration: 0.5mM)
UniProt Q8WVE0	1.01 ± 0.037	1.06 ± 0.088
DNAJB14 (UniProt Q8TBM8)	0.954 ± 0.04	0.93 ± 0.05
PIGK (UniProt Q92643)	1.06 ± 0.18	1.08 ± 0.051
UniProt Q8TE04 and related entries	1.09 ± 0.053	1.12 ± 0.058
LPP (UniProt Q93052)	1.01 ± 0.059	0.981 ± 0.081
UniProt Q92615	1.01 ± 0.068	1.06 ± 0.052
STT3B (UniProt Q8TCJ2)	1.01 ± 0.014	1.01 ± 0.04
UniProt Q93100 and related entries	1.01 ± 0.035	0.981 ± 0.041
UniProt Q8TE02 and related entries	1.02 ± 0.074	0.951 ± 0.14
UniProt Q969E4	1.04 ± 0.044	0.952 ± 0.14
GATAD2B (UniProt Q8WXI9)	0.964 ± 0.058	0.968 ± 0.056
OSTF1 (UniProt Q92882)	1 ± 0.011	0.974 ± 0.026
UniProt Q92783 and related entries	0.972 ± 0.019	0.975 ± 0.0099
C15orf40 (UniProt Q8WUR7)	0.931 ± 0.033	0.91 ± 0.13
UniProt Q8WXA9-2	1.13 ± 0.056	1.35 ± 0.095
UniProt Q8TDD1 and related entries	1.04 ± 0.025	1.09 ± 0.037
PPP1R13L (UniProt Q8WUF5)	1.02 ± 0.077	1.04 ± 0.042
UniProt Q92878 and related entries	1.058 ± 0.01	1.11 ± 0.056
DPF3 (UniProt Q92784)	1.05 ± 0.069	1.03 ± 0.058
MYST3 (UniProt Q92794)	1.04 ± 0.026	1.03 ± 0.078
RDH11 (UniProt Q8TC12)	0.994 ± 0.039	1.01 ± 0.039
SPPL2B (UniProt Q8TCT7)	0.961 ± 0.077	0.886 ± 0.1
UniProt Q92552 and related entries	0.949 ± 0.06	0.988 ± 0.092
NTAN1 (UniProt Q96AB6)	1.09 ± 0.014	1.09 ± 0.033

# (further entries)

Target,NP40-soluble protein abundance (concentration: 0.1mM),NP40-soluble protein abundance (concentration: 0.5mM)
UniProt Q92623,0.904 ± 0.14,0.891 ± 0.14
PDCD6IP (UniProt Q8WUM4),0.994 ± 0.029,1.02 ± 0.039
ZNF622 (UniProt Q969S3),1.02 ± 0.035,1.06 ± 0.051
EXOC4 (UniProt Q96A65),1.01 ± 0.03,1.03 ± 0.054
TSR2 (UniProt Q969E8),0.914 ± 0.051,0.877 ± 0.11
UniProt Q8WVM7 and related entries,1.05 ± 0.014,0.992 ± 0.054
L3MBTL2 (UniProt Q969R5),1.03 ± 0.04,1.02 ± 0.068
SLC44A1 (UniProt Q8WWI5),1.006 ± 0.0087,0.961 ± 0.024
UniProt Q8TCF1 and related entries,0.953 ± 0.069,0.943 ± 0.037
UniProt Q96B97 and related entries,0.992 ± 0.025,0.999 ± 0.059
PHIP (UniProt Q8WWQ0),1.02 ± 0.066,1.1 ± 0.02
NUDCD2 (UniProt Q8WVJ2),0.993 ± 0.033,0.961 ± 0.051
UniProt Q8TE82,1.089 ± 0.0065,1.02 ± 0.038
SETD7 (UniProt Q8WTS6),1.04 ± 0.034,1.02 ± 0.047
FAM3C (UniProt Q92520),0.9863 ± 0.0047,0.952 ± 0.021
C18orf32 (UniProt Q8TCD1),0.909 ± 0.12,0.831 ± 0.25
JADE3 (UniProt Q92613),1.05 ± 0.013,1.139 ± 0.0024
UniProt Q96A57 and related entries,0.961 ± 0.02,0.846 ± 0.076
PNPT1 (UniProt Q8TCS8),1.03 ± 0.059,1.02 ± 0.036
UniProt Q93084-2,1.03 ± 0.037,1.03 ± 0.025
ZNF384 (UniProt Q8TF68),1.04 ± 0.11,1.06 ± 0.045
UniProt Q8TEQ0 and related entries,1.03 ± 0.026,1.05 ± 0.033
SORL1 (UniProt Q92673),0.979 ± 0.021,0.942 ± 0.035
UniProt Q92599,1.09 ± 0.14,1.08 ± 0.17

Target,NP40-soluble protein abundance (concentration: 0.1mM),NP40-soluble protein abundance (concentration: 0.5mM)
GEMIN6 (UniProt Q8WXD5),0.97 ± 0.12,0.915 ± 0.062
UniProt Q8TCC3 and related entries,0.851 ± 0.18,0.92 ± 0.19
UniProt Q8TD16-2|Q8TD16,0.9954 ± 0.0018,1 ± 0.012
RNF166 (UniProt Q96A37),0.9 ± 0.09,0.97 ± 0.082
UniProt Q8WWK9 and related entries,0.947 ± 0.022,0.964 ± 0.022
TFB1M (UniProt Q8WVM0),0.997 ± 0.047,1.02 ± 0.032
UniProt Q92997 and related entries,0.984 ± 0.063,0.979 ± 0.019
UniProt Q92572,0.993 ± 0.029,0.972 ± 0.02
UniProt Q8TEW0 and related entries,1.01 ± 0.024,0.942 ± 0.077
UniProt Q96B23-2,0.968 ± 0.026,0.889 ± 0.07
UniProt Q92896 and related entries,0.993 ± 0.015,1 ± 0.022
UniProt Q8TF46 and related entries,0.951 ± 0.046,1.01 ± 0.12
RTF1 (UniProt Q92541),0.989 ± 0.011,0.968 ± 0.062
UBXN4 (UniProt Q92575),1.01 ± 0.017,1.02 ± 0.046
OVCA2 (UniProt Q8WZ82),0.989 ± 0.12,0.988 ± 0.2
UniProt Q92619,1 ± 0.031,1.09 ± 0.029
UBA3 (UniProt Q8TBC4),1.02 ± 0.086,1.02 ± 0.075
SMARCC1 (UniProt Q92922),0.965 ± 0.047,1.05 ± 0.1
LRRC8C (UniProt Q8TDW0),1.05 ± 0.081,1.14 ± 0.093
UniProt Q96AJ9 and related entries,0.953 ± 0.028,0.914 ± 0.08
UniProt Q96BD8,0.921 ± 0.056,0.911 ± 0.078
UniProt Q8TDR0 and related entries,1.02 ± 0.047,1 ± 0.053
UniProt Q96AY2 and related entries,1.09 ± 0.086,0.976 ± 0.015
UniProt Q92900-2|Q92900,1.02 ± 0.031,1.027 ± 0.0081

Target,NP40-soluble protein abundance (concentration: 0.1mM),NP40-soluble protein abundance (concentration: 0.5mM)
RAB8B (UniProt Q92930),1.01 ± 0.073,1.06 ± 0.085
UniProt Q92616,1.04 ± 0.047,1.05 ± 0.036
DTX3L (UniProt Q8TDB6),1.05 ± 0.029,1.07 ± 0.036
UniProt Q8TCY9,1.05 ± 0.14,0.981 ± 0.15
SPRYD4 (UniProt Q8WW59),1.07 ± 0.12,1.01 ± 0.05
UniProt Q92622 and related entries,0.953 ± 0.091,0.933 ± 0.072
PMM1 (UniProt Q92871),0.983 ± 0.048,1.01 ± 0.06
UniProt Q8TBZ6,1.008 ± 0.01,1.09 ± 0.052
UniProt Q92530 and related entries,0.978 ± 0.086,0.916 ± 0.068
UniProt Q96B96 and related entries,0.932 ± 0.031,0.887 ± 0.062
UniProt Q8WVQ1 and related entries,1.05 ± 0.038,0.994 ± 0.048
CCDC102A (UniProt Q96A19),0.987 ± 0.16,0.949 ± 0.086
UniProt Q8WUB8 and related entries,1.02 ± 0.064,1.11 ± 0.062
PSPC1 (UniProt Q8WXF1),1.02 ± 0.036,1.03 ± 0.049
UniProt Q8WUQ7 and related entries,0.983 ± 0.032,0.947 ± 0.038
SEMA4D (UniProt Q92854),0.939 ± 0.035,0.945 ± 0.029
UniProt Q8WVK2 and related entries,1.09 ± 0.11,1.17 ± 0.055
TMEM131 (UniProt Q92545),0.979 ± 0.11,1.02 ± 0.052
CREBBP (UniProt Q92793),0.971 ± 0.039,1.02 ± 0.037
RFT1 (UniProt Q96AA3),0.956 ± 0.019,0.963 ± 0.048
UniProt Q92538 and related entries,1.02 ± 0.036,1.008 ± 0.0092
RAB24 (UniProt Q969Q5),1.07 ± 0.071,1.07 ± 0.062
UniProt Q8TBN0 and related entries,0.924 ± 0.11,0.903 ± 0.022
UniProt Q969E2 and related entries,1.05 ± 0.049,1 ± 0.099
